Results are given in words; binding and its absence hold for the method and conditions named. In cells and extracts the contact can be indirect. Some binding calls cover weakened binding; strength is not graded here. Tags and fused reporters may be left off the sequences shown.

Amino acid sequences for entries named in this document (tags omitted).
UniProt Q92793: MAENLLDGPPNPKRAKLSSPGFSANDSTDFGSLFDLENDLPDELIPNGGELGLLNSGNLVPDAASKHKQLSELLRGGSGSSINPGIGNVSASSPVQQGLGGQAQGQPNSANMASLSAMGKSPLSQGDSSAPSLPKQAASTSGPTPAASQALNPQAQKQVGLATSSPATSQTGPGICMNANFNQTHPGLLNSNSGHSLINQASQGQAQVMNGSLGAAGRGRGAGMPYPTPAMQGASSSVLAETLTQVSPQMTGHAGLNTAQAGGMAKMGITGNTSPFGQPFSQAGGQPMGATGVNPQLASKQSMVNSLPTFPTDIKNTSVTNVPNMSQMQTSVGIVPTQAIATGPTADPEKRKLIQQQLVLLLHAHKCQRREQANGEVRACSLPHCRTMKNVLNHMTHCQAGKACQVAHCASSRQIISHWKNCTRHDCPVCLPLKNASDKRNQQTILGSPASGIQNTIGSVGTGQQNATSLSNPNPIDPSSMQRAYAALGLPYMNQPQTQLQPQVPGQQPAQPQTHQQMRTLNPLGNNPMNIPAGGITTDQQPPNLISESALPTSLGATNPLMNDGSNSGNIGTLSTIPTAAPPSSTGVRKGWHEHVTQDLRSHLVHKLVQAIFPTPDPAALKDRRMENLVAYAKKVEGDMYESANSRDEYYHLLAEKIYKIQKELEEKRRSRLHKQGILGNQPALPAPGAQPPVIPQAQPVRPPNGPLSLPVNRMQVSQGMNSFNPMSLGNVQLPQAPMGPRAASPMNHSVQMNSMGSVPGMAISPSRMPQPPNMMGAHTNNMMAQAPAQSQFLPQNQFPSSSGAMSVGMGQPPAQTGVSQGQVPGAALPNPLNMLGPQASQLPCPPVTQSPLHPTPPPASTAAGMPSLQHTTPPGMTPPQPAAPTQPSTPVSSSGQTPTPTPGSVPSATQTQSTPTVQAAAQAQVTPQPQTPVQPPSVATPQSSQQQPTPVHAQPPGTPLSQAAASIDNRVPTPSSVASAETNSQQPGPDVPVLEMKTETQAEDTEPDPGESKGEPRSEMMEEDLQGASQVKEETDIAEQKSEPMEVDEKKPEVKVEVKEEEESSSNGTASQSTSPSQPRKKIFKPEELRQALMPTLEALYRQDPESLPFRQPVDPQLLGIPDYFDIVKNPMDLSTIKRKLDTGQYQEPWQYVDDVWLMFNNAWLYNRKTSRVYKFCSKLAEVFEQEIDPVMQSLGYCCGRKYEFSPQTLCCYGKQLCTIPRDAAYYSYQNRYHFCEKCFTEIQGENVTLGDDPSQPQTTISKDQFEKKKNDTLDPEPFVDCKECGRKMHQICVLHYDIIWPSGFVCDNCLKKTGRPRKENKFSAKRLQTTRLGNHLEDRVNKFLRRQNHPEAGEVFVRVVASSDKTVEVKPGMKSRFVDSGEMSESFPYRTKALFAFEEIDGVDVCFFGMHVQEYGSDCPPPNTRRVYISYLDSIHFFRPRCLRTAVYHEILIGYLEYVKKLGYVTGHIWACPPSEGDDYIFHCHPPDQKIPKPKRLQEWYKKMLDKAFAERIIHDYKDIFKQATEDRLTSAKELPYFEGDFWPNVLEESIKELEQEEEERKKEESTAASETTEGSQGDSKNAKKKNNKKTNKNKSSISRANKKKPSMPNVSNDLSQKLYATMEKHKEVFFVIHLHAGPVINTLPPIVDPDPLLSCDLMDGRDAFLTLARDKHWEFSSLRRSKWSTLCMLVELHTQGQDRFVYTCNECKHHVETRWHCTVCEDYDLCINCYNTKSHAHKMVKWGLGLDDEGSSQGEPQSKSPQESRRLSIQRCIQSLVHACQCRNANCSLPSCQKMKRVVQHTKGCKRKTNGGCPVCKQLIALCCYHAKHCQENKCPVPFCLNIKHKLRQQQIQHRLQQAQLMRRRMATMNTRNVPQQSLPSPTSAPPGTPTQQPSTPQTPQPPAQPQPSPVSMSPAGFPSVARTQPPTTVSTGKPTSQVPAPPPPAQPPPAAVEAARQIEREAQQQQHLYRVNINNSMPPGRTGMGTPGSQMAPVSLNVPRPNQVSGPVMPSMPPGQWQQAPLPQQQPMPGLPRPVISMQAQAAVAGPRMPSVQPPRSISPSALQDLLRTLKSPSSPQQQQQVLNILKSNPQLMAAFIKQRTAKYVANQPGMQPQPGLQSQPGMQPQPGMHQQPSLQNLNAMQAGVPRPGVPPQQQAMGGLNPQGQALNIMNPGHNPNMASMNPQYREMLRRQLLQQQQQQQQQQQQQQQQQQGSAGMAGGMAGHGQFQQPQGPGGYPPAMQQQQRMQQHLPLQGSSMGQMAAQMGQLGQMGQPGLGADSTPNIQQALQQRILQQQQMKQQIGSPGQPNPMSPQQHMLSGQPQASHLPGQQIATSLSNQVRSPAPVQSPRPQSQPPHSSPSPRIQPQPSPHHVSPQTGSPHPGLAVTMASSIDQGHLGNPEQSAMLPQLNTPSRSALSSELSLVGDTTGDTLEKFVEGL
UniProt O60675: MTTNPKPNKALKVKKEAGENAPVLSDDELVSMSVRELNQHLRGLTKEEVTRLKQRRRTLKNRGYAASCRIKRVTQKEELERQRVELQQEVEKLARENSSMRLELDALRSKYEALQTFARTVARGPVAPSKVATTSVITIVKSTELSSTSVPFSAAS

In article PMC12187939 one finds binding data, which are given here for two substances.

For this test, the target named is T1, FLAG-tagged WT NRF2 (nuclear factor erythroid 2-related factor 2), expressed in HEK293 (UniProt Q16236).
T1 sequence: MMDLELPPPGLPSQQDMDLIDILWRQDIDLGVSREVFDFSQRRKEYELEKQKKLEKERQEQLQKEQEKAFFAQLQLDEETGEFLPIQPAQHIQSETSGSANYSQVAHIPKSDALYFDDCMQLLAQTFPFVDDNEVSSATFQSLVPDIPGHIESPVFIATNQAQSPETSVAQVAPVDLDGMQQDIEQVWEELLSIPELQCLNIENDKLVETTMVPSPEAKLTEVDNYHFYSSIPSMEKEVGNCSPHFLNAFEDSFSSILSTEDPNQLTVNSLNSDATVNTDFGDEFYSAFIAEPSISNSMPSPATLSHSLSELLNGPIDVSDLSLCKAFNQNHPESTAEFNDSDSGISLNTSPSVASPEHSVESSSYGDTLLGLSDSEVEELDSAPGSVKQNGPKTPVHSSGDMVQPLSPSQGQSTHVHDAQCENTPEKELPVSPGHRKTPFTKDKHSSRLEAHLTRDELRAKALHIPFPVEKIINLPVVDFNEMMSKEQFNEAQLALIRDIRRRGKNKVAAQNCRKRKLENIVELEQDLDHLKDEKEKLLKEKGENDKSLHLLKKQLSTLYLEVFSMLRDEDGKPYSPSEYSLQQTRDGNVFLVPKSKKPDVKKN
Kind of test: co-IP; FLAG immunoprecipitation (anti-FLAG M2 magnetic beads, overnight at 4 °C) from lysates of HEK293 cells transfected with FLAG-tagged NRF2 constructs or luciferase, with or without GFP-tagged CBP; FLAG-IP buffer 50 mM Tris-HCl, 150 mM NaCl, 1 mM EDTA, 1% Triton X-100; western blot. Background: In western blotting, separated proteins are transferred to a membrane and probed.

Take “GFP-tagged CBP, expressed in HEK293 (from UniProt Q92793 1-2442)”: the binding entry was “binds”.
The value for “MAFK (sMAF protein) in HEK293 lysate (from UniProt O60675 1-156)” was “binds”.
